These results are taken from publication PMC4432279.

Chains of the proteins cited; added tags and fusions are not shown.
UniProt O95071: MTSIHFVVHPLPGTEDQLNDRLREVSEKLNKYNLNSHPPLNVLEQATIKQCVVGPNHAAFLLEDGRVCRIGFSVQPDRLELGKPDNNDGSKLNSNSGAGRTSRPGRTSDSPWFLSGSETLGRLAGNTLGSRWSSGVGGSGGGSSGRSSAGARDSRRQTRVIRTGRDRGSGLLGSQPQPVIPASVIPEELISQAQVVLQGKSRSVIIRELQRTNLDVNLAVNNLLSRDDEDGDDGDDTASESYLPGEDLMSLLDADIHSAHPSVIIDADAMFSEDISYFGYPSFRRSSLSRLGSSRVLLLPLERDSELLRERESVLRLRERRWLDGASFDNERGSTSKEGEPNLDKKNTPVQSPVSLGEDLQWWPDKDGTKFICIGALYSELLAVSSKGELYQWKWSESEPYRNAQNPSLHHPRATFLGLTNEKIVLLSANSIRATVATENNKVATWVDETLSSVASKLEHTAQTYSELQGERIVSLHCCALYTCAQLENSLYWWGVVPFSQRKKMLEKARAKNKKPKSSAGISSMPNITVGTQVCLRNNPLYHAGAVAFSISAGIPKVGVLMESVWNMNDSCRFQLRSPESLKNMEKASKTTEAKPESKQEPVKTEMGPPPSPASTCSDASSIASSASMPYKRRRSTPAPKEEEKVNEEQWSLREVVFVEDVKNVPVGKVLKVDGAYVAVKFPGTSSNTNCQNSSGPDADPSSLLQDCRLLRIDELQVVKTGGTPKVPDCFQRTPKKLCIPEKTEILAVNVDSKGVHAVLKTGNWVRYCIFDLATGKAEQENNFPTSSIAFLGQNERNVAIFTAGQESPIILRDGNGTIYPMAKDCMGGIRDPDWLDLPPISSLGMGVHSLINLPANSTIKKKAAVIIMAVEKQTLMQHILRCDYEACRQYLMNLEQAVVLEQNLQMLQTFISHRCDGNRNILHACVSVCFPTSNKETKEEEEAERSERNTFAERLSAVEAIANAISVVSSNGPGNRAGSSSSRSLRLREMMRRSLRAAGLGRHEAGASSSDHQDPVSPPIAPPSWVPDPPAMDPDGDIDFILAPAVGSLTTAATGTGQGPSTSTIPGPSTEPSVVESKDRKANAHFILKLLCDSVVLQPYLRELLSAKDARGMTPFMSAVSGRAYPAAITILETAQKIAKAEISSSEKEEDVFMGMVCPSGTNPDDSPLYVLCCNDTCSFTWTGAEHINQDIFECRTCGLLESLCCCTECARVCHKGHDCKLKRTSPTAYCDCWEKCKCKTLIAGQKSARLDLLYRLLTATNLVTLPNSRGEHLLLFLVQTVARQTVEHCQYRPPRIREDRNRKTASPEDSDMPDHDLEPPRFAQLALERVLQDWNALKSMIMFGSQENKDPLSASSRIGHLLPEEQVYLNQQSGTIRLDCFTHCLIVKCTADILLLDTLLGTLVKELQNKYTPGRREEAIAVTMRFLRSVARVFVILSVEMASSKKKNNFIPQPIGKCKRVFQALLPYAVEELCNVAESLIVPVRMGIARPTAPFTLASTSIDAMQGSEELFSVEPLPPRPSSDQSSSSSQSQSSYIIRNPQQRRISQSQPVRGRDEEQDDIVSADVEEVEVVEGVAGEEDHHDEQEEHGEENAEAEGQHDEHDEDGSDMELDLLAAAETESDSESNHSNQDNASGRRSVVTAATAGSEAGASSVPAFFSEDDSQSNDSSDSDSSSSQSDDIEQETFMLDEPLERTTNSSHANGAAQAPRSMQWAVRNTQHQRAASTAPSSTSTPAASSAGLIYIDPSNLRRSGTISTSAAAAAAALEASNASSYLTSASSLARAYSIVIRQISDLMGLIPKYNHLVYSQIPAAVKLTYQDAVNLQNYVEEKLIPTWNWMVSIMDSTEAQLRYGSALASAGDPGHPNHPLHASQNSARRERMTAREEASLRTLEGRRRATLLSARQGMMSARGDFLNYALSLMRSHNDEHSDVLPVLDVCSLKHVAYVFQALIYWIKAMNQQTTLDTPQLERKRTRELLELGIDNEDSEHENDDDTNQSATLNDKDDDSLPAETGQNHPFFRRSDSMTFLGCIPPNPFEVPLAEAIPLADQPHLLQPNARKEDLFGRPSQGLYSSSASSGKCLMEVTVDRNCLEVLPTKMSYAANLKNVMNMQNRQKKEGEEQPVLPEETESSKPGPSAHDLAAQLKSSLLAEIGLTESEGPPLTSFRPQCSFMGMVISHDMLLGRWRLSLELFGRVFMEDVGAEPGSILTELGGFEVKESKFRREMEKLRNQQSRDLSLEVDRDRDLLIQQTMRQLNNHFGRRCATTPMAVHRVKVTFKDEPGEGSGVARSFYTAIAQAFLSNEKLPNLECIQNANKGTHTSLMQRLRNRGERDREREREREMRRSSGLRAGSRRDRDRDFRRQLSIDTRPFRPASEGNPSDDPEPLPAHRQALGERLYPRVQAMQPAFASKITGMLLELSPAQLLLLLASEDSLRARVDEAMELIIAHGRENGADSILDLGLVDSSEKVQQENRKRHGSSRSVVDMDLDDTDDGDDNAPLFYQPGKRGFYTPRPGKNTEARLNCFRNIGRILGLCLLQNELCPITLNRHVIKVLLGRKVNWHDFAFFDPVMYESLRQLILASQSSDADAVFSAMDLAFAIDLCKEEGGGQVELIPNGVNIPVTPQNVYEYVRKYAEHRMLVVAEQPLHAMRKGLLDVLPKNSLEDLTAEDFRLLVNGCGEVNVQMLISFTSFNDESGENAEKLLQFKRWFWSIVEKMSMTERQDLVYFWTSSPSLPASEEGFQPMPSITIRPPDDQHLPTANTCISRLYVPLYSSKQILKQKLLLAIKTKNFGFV

These are yes or no findings as the source states them, for the method shown. In cells and extracts the contact can be indirect. A yes stands for co-enrichment or nearness to the bait. Other partners may have been found.

The assay deals with HS-EDD (2×HA/2×Strep-tagged E3 identified by differential display) (human) (UniProt O95071). Description: affinity purification with mass spectrometry; lysates of HS-EDD or HS tag HEK293 cells tandem affinity-purified by HA and Streptactin resins; SDS-PAGE, in-gel trypsin digest, LC-MS (LTQ-Orbitrap); proteins found in the HS-only sample removed; n = 3.

B1: MRS2 (protein, UniProt Q9HD23 50-443)
chain: RAAQLCGPDRLRVAGEVHRFRTSDVSQATLASVAPVFTVTKFDKQGNVTSFERKKTELYQELGLQARDLRFQHVMSITVRNNRIIMRMEYLKAVITPECLLILDYRNLNLEQWLFRELPSQLSGEGQLVTYPLPFEFRAIEALLQYWINTLQGKLSILQPLILETLDALVDPKHSSVDRSKLHILLQNGKSLSELETDIKIFKESILEILDEEELLEELCVSKWSDPQVFEKSSAGIDHAEEMELLLENYYRLADDLSNAARELRVLIDDSQSIIFINLDSHRNVMMRLNLQLTMGTFSLSLFGLMGVAFGMNLESSLEEDHRIFWLITGIMFMGSGLIWRRLLSFLGRQLEAPLPPMMASLPKKTLLADRSMELKNSLRLDGLGSGRSILTNR
Turning to B1, the binding result is “binds”.
